Measured values taken from paper PMC8825329.
These are yes or no findings as the source states them, for the method shown. Binding seen in cells or lysates may run through a third protein. Some results given as binding are weak or reduced against the parent protein; the word gives no strength. Where a sequence is shown, tags or fusion partners need not be part of it. One block for each binder: values may come before it.

Molecular target: T1, LIP1 full-length ORF fused upstream of the N-terminal region of mVenus YFP (Arabidopsis thaliana) (UniProt Q9ZWT1)
T1 sequence: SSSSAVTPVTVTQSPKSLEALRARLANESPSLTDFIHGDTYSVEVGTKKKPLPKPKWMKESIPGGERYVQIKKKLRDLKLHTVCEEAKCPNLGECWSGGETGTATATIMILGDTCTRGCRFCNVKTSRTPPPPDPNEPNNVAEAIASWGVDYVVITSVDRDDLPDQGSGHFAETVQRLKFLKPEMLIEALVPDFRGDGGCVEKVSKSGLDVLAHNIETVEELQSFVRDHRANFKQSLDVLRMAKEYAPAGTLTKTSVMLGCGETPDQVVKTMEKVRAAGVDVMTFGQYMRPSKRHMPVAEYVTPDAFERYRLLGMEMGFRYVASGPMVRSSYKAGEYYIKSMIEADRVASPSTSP
Assay: split reporter; BiFC with split mVenus YFP in Arabidopsis leaf protoplasts; LIP1-N (N-terminal YFP region) with NFU-C (C-terminal YFP region); imaged 20-24 h after transfection, MitoTracker co-stain

binding: binds
B1: NFU5 full-length ORF fused upstream of the C-terminal region of mVenus YFP (protein, UniProt Q9C8J2 62-275)
chain: SSFPFNWIEQRRTMFIQTQSTPNPSSLMFSPGKPVMEIGSADFPNSRSAMSSPLAKAIFAIDGVVRVFYGSDFVTVTKSDDVTWDILKPDIFAVVMDFYSSGQPLFLDSQATAAKDTAIHEDDSETVAMIKELLETRIRPSVQDDGGDIEYCGFDTETGIVKLRMQGACSGCPSSSVTLKSGIENMLMHYVSEVKGVEQEFDGEEEGTSSGPME

binding: binds
B2: NFU4 full-length ORF fused upstream of the C-terminal region of mVenus YFP (protein, UniProt Q9LIG6 49-283)
chain: LNSRTKDSALPSLNSSLLAQKWNFLGGQRRTMFIQTQSTPNPSSLMFYPGKPVMEVGSADFPNVRSALGSPLAKSIYSIDGVVRVFFGSDFVTVTKSDDVSWDILKPEIFAAVMDFYSSGQPLFLDSQAAAAKDTAISEDDSETVAMIKELLETRIRPAVQDDGGDIEYCGFDPESGIVKLRMQGACSGCPSSSVTLKSGIENMLMHYVSEVKGVEQEFDGEDEEGTLSGEMRVE
